Test results: the supplement of paper PMC12009310
Structures can show the parent of a compound that is named as a salt. ± gives the standard deviation of the averaged measurements. The list shows a part of the results. Plates or batches differ in their baseline, so values are only roughly comparable.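 The cells are a mouse kidney inner medullary collecting duct line, silenced either for the ciliary gene Rpgrip1l or with a non-targeting control siRNA.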

The compounds below were run on mIMCD3 (assay: robust z score of cell number vs plate controls; higher = more cells (less cytotoxic)). Conditions: 10 µM; 48 h; siRNA: siScr.

SMILES	robust z score of cell number
O=C1CCC(N2C(=O)c3ccccc3C2=O)C(=O)N1 (centres undefined) [Thalidomide]	-3.2 ± 1.7
NC(C(=O)O)c1cc(O)cc(O)c1 (racemic)	1.22 ± 4.5
Oc1cc2c(cc1O)C(c1ccccc1)CNCC2 (centres undefined)	-3.11 ± 4.4
CCCCCCCCCCCCCCCCn1cc[n+](Cc2ccccc2)c1C	-12.9 ± 12
Nc1c(Br)cc(Br)cc1CN[C@H]1CC[C@H](O)CC1 [Ambroxol hydrochloride]	-4.54 ± 1.6
O=C1C(Cl)=C(NCCN2CCOCC2)C(=O)c2ncccc21	-44.5 ± 29
CCCC[P+](CCCC)(CCCC)Cc1ccc(NC(=O)C(Cc2ccc3ccccc3c2)NC(=NC2CCCCC2)NC2CCCCC2)cc1 (centres undefined)	-22.5 ± 5.1
Cc1ccc([N+](=O)[O-])cc1S(=O)(=O)N(C)C	-0.00928 ± 1.4
COC(=O)c1c(C)[nH]c(C)c1C(=O)c1ccccc1Cc1ccccc1	-8.88 ± 2.4
CC(C)N(CCC(=O)c1ccc2ccccc2c1)Cc1ccccc1	-40.6 ± 9.5
CCCCn1c(=O)c2[nH]c(C34CC5CC(CC3C5)C4)nc2n(CCCO)c1=O	-35.4 ± 27
CCN(CC)CC1CCCCN1CC(=O)N1c2ccccc2C(=O)Nc2cccnc21 (centres undefined)	0.226 ± 1.6
NC(=O)N1C(=O)/C(=C(\O)c2cccs2)c2cc(Cl)ccc21 [Tenidap]	-101 ± 85
CCCn1c(=O)c2[nH]c(-c3ccccc3)nc2n(CCC)c1=O [1,3-Dipropyl-8-phenylxanthine]	-19.7 ± 8.8
COc1ccccc1OCCNCC(O)COc1cccc2[nH]c3ccccc3c12 (centres undefined) [Carvedilol]	-13.3 ± 12
COc1cc2c(Nc3ccc(NC(=O)c4ccccc4)cc3)ncnc2cc1OCCCN1CCOCC1	-27.6 ± 4.8
CCC1=C(C)CN(C(=O)NCCc2ccc(S(=O)(=O)NC(=O)N[C@H]3CC[C@H](C)CC3)cc2)C1=O [Glimepiride]	-6.71 ± 8.2
CCCn1c(=O)[nH]c2nc(-c3ccc(S(=O)(=O)O)cc3)[nH]c2c1=O	-3 ± 0.6
O=C1CCc2cc(OCCCCc3nnnn3C3CCCCC3)ccc2N1 [Cilostazol]	-16.5 ± 8.6
CN(C)C(=O)n1nnnc1Cc1ccc(-c2ccccc2)cc1	-27.3 ± 4.7

A different layout for part of the listing above:

| SMILES | robust z score of cell number |
| --- | --- |
| NC(C(=O)O)c1cc(O)cc(O)c1 (racemic) | 1.22 ± 4.5 |
| Oc1cc2c(cc1O)C(c1ccccc1)CNCC2 (centres undefined) | -3.11 ± 4.4 |

(further entries)

SMILES	robust z score of cell number
C=C1C(=O)O[C@H]2[C@H]1CC/C(C)=C/CC[C@@]1(C)O[C@@H]21 [Parthenolide]	-21.5 ± 18
COc1ccccc1N1CCN(CCCCNC(=O)c2ccc(-c3ccc(C(C)=O)cc3)cc2)CC1	0.408 ± 5.7
CCN(CC)CCCCNc1ncc2cc(-c3c(Cl)cccc3Cl)c(NC(=O)NC(C)(C)C)nc2n1	-51.7 ± 1.6
COc1ccc(/C=C/C(=O)Nc2ccccc2C(=O)O)cc1OC [Tranilast]	-8.28 ± 2.2
Cc1nc2sccn2c(=O)c1CCN1CCC(=C(c2ccccc2)c2ccc(F)cc2)CC1	-55.1 ± 29
CCN(CC)CCCC(C)Nc1nc(C)cc(Nc2ccc3nc(C)cc(N)c3c2)n1 (centres undefined)	-0.789 ± 4.1
CC1CCN(CCCC(=O)c2ccc(F)cc2)CC1 [Melperone hydrochloride]	-9.32 ± 4.7
Fc1ccc(Cl)cc1-c1nc(Nc2ccncc2)c2nccnc2n1	-3.51 ± 1.6
OC(c1ccccc1)C1CCN(CCc2ccccc2)CC1 (centres undefined)	-11.4 ± 0.38
O=C1CN(/N=C/c2ccc(-c3ccc([N+](=O)[O-])cc3)o2)C(=O)N1 [Dantrolene, sodium salt]	-7.78 ± 1.8
CNC(=O)[C@H]1O[C@@H](n2cnc3c(NCc4cccc(I)c4)ncnc32)[C@H](O)[C@@H]1O	0.108 ± 2.5
N#C/C(=C\c1ccc(O)c(O)c1)C(=O)NCCCCc1ccccc1	-28 ± 22
O=C(c1ccc(F)cc1)C1CCN(CCn2c(=S)[nH]c3ccccc3c2=O)CC1 [Altanserin hydrochloride]	-12.3 ± 3
CC(C)NC[C@H](O)COc1ccc(CC(N)=O)cc1 [S-(-)-Atenolol]	-0.718 ± 11
CC[C@]1(O)C[C@@H]2CN(CCc3c([nH]c4ccccc34)[C@@](C(=O)OC)(c3cc4c(cc3OC)N(C)[C@H]3[C@@](O)(C(=O)OC)[C@H](OC(C)=O)[C@]5(CC)C=CCN6CC[C@]43[C@@H]65)C2)C1 [Vinblastine sulfate]	-1.95 ± 0.8
CCC(NC(C)C)C(O)c1ccc(O)c2[nH]c(=O)ccc12 (centres undefined) [Procaterol hydrochloride]	0.939 ± 0.38
O=C(NCCCCN1CCN(c2cccc(Cl)c2Cl)CC1)c1ccc2c(c1)Cc1ccccc1-2	-69.5 ± 64
O=C(NCCCCCCNC(=O)ON=C1CCCCC1)ON=C1CCCCC1	-3.38 ± 1.1
O=c1ncccn1[C@@H]1O[C@H](CO)[C@@H](O)[C@H]1O [Zebularine]	-3.98 ± 0.64
